Reference: publication PMC9455263
These are yes or no findings as the source states them, for the method shown. In cells and extracts the contact can be indirect. Some binding calls cover weakened binding; strength is not graded here.

The chains behind the UniProt entries cited, without tags or fusion partners. Where a name states a change or a piece, a line headed by the entry shows the natural chain unless it says otherwise.
UniProt P06401: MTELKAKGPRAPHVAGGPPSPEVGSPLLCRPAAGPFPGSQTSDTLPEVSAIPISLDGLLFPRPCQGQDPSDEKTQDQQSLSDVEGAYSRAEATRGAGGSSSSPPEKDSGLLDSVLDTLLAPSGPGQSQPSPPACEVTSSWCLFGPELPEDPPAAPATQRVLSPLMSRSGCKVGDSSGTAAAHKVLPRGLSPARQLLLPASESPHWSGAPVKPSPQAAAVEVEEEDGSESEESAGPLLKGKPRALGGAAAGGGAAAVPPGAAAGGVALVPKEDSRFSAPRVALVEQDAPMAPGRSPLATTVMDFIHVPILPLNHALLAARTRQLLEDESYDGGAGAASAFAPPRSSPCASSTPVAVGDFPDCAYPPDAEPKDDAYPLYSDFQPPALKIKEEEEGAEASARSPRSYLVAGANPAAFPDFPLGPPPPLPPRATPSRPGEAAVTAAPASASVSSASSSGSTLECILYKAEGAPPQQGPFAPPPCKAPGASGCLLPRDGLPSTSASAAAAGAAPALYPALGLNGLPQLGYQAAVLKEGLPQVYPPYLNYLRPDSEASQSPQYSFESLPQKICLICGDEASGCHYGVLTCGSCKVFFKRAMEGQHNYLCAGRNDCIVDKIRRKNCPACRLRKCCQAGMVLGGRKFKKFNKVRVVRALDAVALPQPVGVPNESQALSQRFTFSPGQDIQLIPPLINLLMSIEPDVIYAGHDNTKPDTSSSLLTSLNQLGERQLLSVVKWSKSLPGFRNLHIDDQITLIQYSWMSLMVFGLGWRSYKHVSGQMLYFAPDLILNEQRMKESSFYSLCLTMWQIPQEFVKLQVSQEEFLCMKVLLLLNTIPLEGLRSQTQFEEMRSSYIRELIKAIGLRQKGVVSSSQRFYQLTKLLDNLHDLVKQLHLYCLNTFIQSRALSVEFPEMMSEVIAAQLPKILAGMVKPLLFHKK
UniProt Q99873: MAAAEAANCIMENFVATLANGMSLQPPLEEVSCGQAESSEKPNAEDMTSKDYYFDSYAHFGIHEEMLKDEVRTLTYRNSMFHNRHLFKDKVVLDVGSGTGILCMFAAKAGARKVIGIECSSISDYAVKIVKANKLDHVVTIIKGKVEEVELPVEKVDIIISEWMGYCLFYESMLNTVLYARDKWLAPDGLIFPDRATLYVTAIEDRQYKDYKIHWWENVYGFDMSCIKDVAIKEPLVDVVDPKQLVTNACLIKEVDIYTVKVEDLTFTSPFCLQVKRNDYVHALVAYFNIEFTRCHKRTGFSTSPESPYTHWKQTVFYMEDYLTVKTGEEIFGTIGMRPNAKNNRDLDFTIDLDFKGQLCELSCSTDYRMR
UniProt Q13185: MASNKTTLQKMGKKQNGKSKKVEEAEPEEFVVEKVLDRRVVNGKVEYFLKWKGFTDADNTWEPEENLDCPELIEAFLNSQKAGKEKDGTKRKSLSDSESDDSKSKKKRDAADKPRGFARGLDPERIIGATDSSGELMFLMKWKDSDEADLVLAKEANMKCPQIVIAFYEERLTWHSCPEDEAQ

Experiments:
[1] = molecular target: progesterone receptor (PR), unliganded (human (endogenous in T47D)) (UniProt P06401); experiment: co-IP; endogenous proteins; whole-cell extracts (RIPA buffer, 1 mg protein) of T47D cells deprived of steroids 48 h and serum-starved 24 h; IP with anti-PR, anti-PRMT1 or anti-HP1γ antibody or control IgG overnight at 4 °C, protein A agarose, immunoblot
[2] = molecular target: protein arginine methyltransferase 1 (PRMT1) (human (endogenous in T47D)) (UniProt Q99873); experiment: as above
[3] = molecular target: progesterone receptor (PR), unliganded (human (endogenous in T47D)) (UniProt P06401); experiment: proximity ligation; Duolink in situ PLA on endogenous proteins in methanol-fixed T47D cells deprived of steroids 48 h and serum-starved 24 h; pairs of primary antibodies; cells transfected with siNS or with siRNAs against PR, PRMT1, HP1γ or BRCA1 as specificity controls
[4] = molecular target: protein arginine methyltransferase 1 (PRMT1) (human (endogenous in T47D)) (UniProt Q99873); experiment: as above

| Substance | binding [1] | binding [2] | binding [3] | binding [4] |
| --- | --- | --- | --- | --- |
| heterochromatin protein 1γ (HP1γ) (from UniProt Q13185 1-183) | binds | binds | binds | binds |
| protein arginine methyltransferase 1 (PRMT1) (from UniProt Q99873 1-371) (enzyme) | binds | – | – | – |
